Test results: PubChem BioAssay AID2685 (National Center for Advancing Translational Sciences (NCATS), 2010)
Some of the results follow. The main result of the screen is listed elsewhere. These columns were measured beside it and carry no call. Most of these compounds were active or inconclusive in the main read-out, so they are no random draw. Potencies come from curve fits of mixed quality, noted in brackets.

Experiment: qHTS Assay for Lipid Storage Modulators in Drosophila S3 Cells;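 as to cell number change: cells counted by Cell Tracker Red CMTPX staining in the red channel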
Conditions: BODIPY lipid droplet fluorescence, 18-24 h; for cell number change: measured here: cell count max response, cells fed with added oleic acid
Summary of the method: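 Drosophila S3 cells loaded with oleic acid (400 uM, as added) and compounds at several concentrations; lipid droplets imaged by 488-nm laser-scanning cytometry, 500–530 nm intensity and object ratio to cell channel. Percent activity normalized to 20 uM Triacsin C.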

[1] = measured here: cell number channel AC50, cells fed with added oleic acid
[2] = measured here: lipid fluorescence (Fed channel) AC50, cells fed with added oleic acid

| Compound | cell number change [%] | AC50 [1] | AC50 [2] |
| --- | --- | --- | --- |
| COc1cccc(OCCOCCN(C)CCO)c1 | -124 | 29.1 µM [falling, partial curve] | 25.9 µM [falling, partial curve] |
| Cc1c(NC(=O)C2CC=CCC2C(=O)O)c(=O)n(-c2ccccc2)n1C (stereo unspecified) | -9.55 | – | 32.6 µM [falling, single point] |
| CCN1CCN(C(=S)NCCc2ccccc2)CC1 | 23.9 | – | 29.1 µM [rising, single point] |
| O=C(NC(N1CCCC1)C(Cl)(Cl)Cl)c1ccccc1 (stereo unspecified) | -5.6 | – | – |
| CCN(CC)S(=O)(=O)c1cc(NC(=O)C(C)N2CCN(c3ccccn3)CC2)ccc1C (stereo unspecified) | 24.3 | – | 18.4 µM [rising, single point] |
| Clc1nc(-c2cccnc2)nc2scc(-c3ccccc3)c12 | 38 | 9.2 µM [rising, partial curve] | 20.6 µM [rising, single point] |
| CC(C)(C)c1ccc(C2CC2C(=O)N/N=C\c2ccc[nH]2)cc1 (stereo unspecified) | -35.2 | 18.4 µM [falling, single point] | 20.6 µM [falling, partial curve] |
| COC(=O)CN1C(=O)[C@H]2[C@@H](c3ccc(C)o3)N3C(=O)CN(Cc4ccc(-c5ccccc5)cc4)C(=O)[C@@]3(C)[C@H]2C1=O | 0.599 | – | 2.91 µM [falling, single point] |
| S=C(NCCc1ccccc1)Nc1ccccn1 | – | – | 18.4 µM [rising, single point] |
| O=C(OCc1c(Cl)cccc1Cl)c1cccnc1 | -32.1 | 32.6 µM [falling, single point] | – |
| CCC(=O)c1ccc(OC(=O)C2CCN(C3=NS(=O)(=O)c4ccccc43)CC2)cc1 | 2.89 | – | 1.64 µM [rising, partial curve] |
| O=[N+]([O-])c1ccc(N2CCN(c3ccc(F)cc3)CC2)cn1 | 13.2 | – | 5.62 µM [rising, single point] |
| Cc1nc(NC(=O)C2CC2)sc1C(=O)Nc1ccc(Br)cc1 | 35.2 | – | – |
| C/C(=N\N)c1c(-c2ccccc2)c2cc(C)ccc2[nH]c1=O | 12.7 | – | 0.092 µM [rising, full curve, poor fit] |
| O=C(c1cc2cc(Br)ccc2[nH]1)N1CCc2ccccc21 | -12.6 | 6.51 µM [falling, single point] | – |
| CCC1CCCCN1C(=O)c1c[nH]c2ccc(S(=O)(=O)N(C)c3ccc(Cl)cc3)cc2c1=O (stereo unspecified) | 77.3 | 18.4 µM [rising, single point] | – |
| C=C(C)COc1ccc(-c2[nH]ncc2Oc2cccc(OC)c2)c(O)c1 | -95.5 | 14.6 µM [falling, partial curve] | 16.4 µM [falling, partial curve] |
| CSc1nnc(SCC(=O)Nc2ccc3[nH]c(=O)[nH]c3c2)s1 | -1.81 | – | 0.00461 µM [falling, full curve, poor fit] |
| CCC1CCCCN1C(=S)NC(=O)c1cccc([N+](=O)[O-])c1 (stereo unspecified) | -29.7 | – | 20.6 µM [falling, single point] |
| CCC(C(=O)NCc1ccco1)n1nc(C)n2c(cc3occc32)c1=O (stereo unspecified) | 29 | – | 29.1 µM [falling, single point] |

Entries from the list above that contain a furan ring, fused or not, in the order listed:

| Compound | cell number change [%] | AC50 [1] | AC50 [2] |
| --- | --- | --- | --- |
| COC(=O)CN1C(=O)[C@H]2[C@@H](c3ccc(C)o3)N3C(=O)CN(Cc4ccc(-c5ccccc5)cc4)C(=O)[C@@]3(C)[C@H]2C1=O | 0.599 | – | 2.91 µM [falling, single point] |
| CCC(C(=O)NCc1ccco1)n1nc(C)n2c(cc3occc32)c1=O (stereo unspecified) | 29 | – | 29.1 µM [falling, single point] |

(continued)

| Compound | cell number change [%] | AC50 [1] | AC50 [2] |
| --- | --- | --- | --- |
| CCC(=O)Nc1sc2c(c1C#N)CC(C)(C)NC2(C)C | -10.3 | – | 0.00461 µM [falling, full curve, poor fit] |
| COc1ccc(S(=O)(=O)Nc2ccc(S(=O)(=O)N3CCCC3)cc2)cc1 | -5.56 | – | 0.103 µM [falling, full curve, poor fit] |
| C/C=C/c1ccc(OCCCCOc2ccccc2F)c(OC)c1 | 8.99 | – | – |
| Cc1cc(C(c2ccc(C)o2)c2ccc(C)o2)c(O)c([N+](=O)[O-])c1 | – | 2.91 µM [falling, single point] | – |
| CCOC(=O)/C(C#N)=C1/C=CN(C)C(C)=N1 | 2.85 | – | 3.26 µM [rising, partial curve, poor fit] |
| O=C(CN1C(=O)NC2(CCCC2)C1=O)OCC(=O)c1cccc(Cl)c1 | -11.6 | – | – |
| COc1ccc(OC)c(CNc2ncc(-c3cccc([N+](=O)[O-])c3)n2C)c1 | -7.29 | – | 3.26 µM [falling, full curve] |
| [O-]C1=N/[N+](=C/c2ccccc2Cl)CC1 | -0.839 | – | 1.16 µM [falling, single point] |
| CCc1nn(CCCC(=O)NCc2ccc(OC(C)C)cc2)c(=O)c2cc3occc3n12 | 1.53 | – | 0.0651 µM [rising, full curve, poor fit] |
| O=C(CN1CCc2ccccc2C1)c1cccs1 | -1.49 | – | 0.82 µM [falling, full curve, poor fit] |
| Cc1c(C(C)C)c(=O)n(-c2ccc(S(=O)(=O)NCc3ccccc3)cc2)n1C | -14 | – | – |
| Cc1ccc(-n2c(=O)c3c(n4cnnc24)-c2ccccc2CC32CCCCC2)cc1 | 48.8 | 29.1 µM [rising, single point] | – |
| O=C(COc1ccccc1[N+](=O)[O-])OCCCOC(=O)COc1ccccc1[N+](=O)[O-] | 7.6 | 0.0058 µM [rising, full curve, poor fit] | – |
| C=C(C)COc1ccc(-c2[nH]ncc2-c2ccccc2)c(O)c1 | -58.4 | 20.6 µM [falling, single point] | 20.6 µM [falling, partial curve] |
| CCNC(=O)CSc1ncnc2sccc12 | 13.4 | – | 11.6 µM [rising, partial curve] |
| COc1cc(-c2nc(-c3ccc(-c4ccccc4)nc3OC)no2)cc(OC)c1OC | -4.73 | 0.103 µM [falling, full curve, poor fit] | 2.31 µM [rising, partial curve] |
| CCOc1ccc(OCCNCc2ccc(OC(C)C(=O)N(C)C)c(OCC)c2)cc1 (stereo unspecified) | – | – | 2.06 µM [rising, partial curve] |
| CC(=O)Nc1ccc(S(=O)(=O)NCCC(=O)NCCc2ccc(F)cc2)cc1 | 14.9 | – | 13 µM [rising, single point] |
| NC(=O)CC(NC(=O)c1cccc(Br)c1)c1ccc(N2CCN(c3ccc(F)cc3)CC2)c([N+](=O)[O-])c1 (stereo unspecified) | 2.99 | – | 6.51 µM [rising, single point] |
| O=S(=O)(c1ccc(F)cc1)c1nc(-c2ccco2)oc1Nc1ccc(F)cc1 | 13.5 | – | 2.06 µM [rising, full curve, poor fit] |

| Compound | cell number change [%] | AC50 [1] | AC50 [2] |
| --- | --- | --- | --- |
| O=C(NCCC1=CCCCC1)c1ccc(Cl)c(S(=O)(=O)N2CCCCC2)c1 | 38 | 35.5 µM [rising, single point] | – |
| COc1ccc(C(=O)N2CCN(c3ccccn3)CC2)cc1[N+](=O)[O-] | 25.4 | – | 15.8 µM [rising, single point] |
| C=CCn1c(SCC(=O)NC2CC2)nnc1C1CC1 | 8.56 | – | – |
| Cn1c(=O)[nH]c(=O)c2c1nc(CN1CCN(c3ccc(F)cc3)CC1)n2CCN1CCOCC1 | -49.8 | 0.206 µM [falling, full curve] | 29.1 µM [falling, single point] |
| O=C(COC(=O)CCS(=O)(=O)c1ccccc1)Nc1ccc(N2CCCCC2)cc1 | 15.6 | – | 0.164 µM [rising, full curve, poor fit] |
| CCOc1ccc(OCC)c(-c2c(=O)n(OCc3ccccc3Br)c3ccccc3[n+]2[O-])c1 | -21.2 | – | 2.59 µM [falling, full curve, poor fit] |
| CO/N=C/c1ccc(N2CCN(C(=O)c3ccc(C)cc3)CC2)c([N+](=O)[O-])c1 | -11.3 | – | 18.4 µM [falling, partial curve] |
| Cc1nc(NC(=O)c2ccc(F)cc2)sc1C(=O)Nc1ccc2c(c1)CCC2 | 22.4 | – | 25.9 µM [rising, single point] |
| CN1CCN(CC(=O)N/N=C\c2c[nH]c3ccccc23)CC1 | 53.5 | 29.1 µM [rising, single point] | – |
| Cc1ccc(/C=N/n2c(-c3cccc(Cl)c3)n[nH]c2=S)o1 | -27.1 | – | 32.6 µM [falling, single point] |
| CC(C)(C)NC(=O)COC(=O)/C=C/c1ccc(F)cc1 | 21.3 | – | 8.2 µM [rising, partial curve, poor fit] |
| Cc1cccc(NC(=S)N2CCN(S(=O)(=O)c3cccc(F)c3)CC2)c1 | 24.8 | – | 23.1 µM [rising, single point] |
| COCCC1CCCCN1C(=O)c1cc(COc2ccc(-n3cncn3)cc2)on1 (stereo unspecified) | -35.1 | 18.4 µM [falling, single point] | – |
| CCCS(=O)(=O)N1CCCC(C(=O)NCCCN2CCN(c3ccc(F)cc3)CC2)C1 (stereo unspecified) | -1.76 | – | 0.00461 µM [rising, full curve, poor fit] |
| C/C(=N\N1C(=O)c2ccccc2NC1c1ccccc1)c1ccccc1O (stereo unspecified) | 38.7 | – | 29.1 µM [rising, single point] |
| COc1ccc(NS(=O)(=O)N2CCOCC2)cc1 | 2.89 | – | 29.1 µM [rising, single point] |
| CCn1c(CC(=O)Nc2ccc(Cl)cc2)nnc1SCC(=O)N1CCOCC1 | 7.03 | – | – |
| COCCN(C(=O)CCN1C(=O)C2CC=CCC2C1=O)c1c(N)n(CC(C)C)c(=O)[nH]c1=O (stereo unspecified) | 2.98 | – | 0.291 µM [falling, full curve, poor fit] |
| CCOC(=O)c1[nH]c2cc(OC)c(OC)cc2c1NC(=O)C(C)N1CCN(Cc2ccccc2)CC1 (stereo unspecified) | 80.5 | 9.2 µM [rising, partial curve] | 7.31 µM [rising, partial curve] |
